Construct, isoform or probe ends are uncertain for at least one entry. Results from cells or extracts need not show a direct contact. For some assays here: No signal at the amounts used counts as a negative.
Columns and labels:
[1] = molecular target: PCBP1 (endogenous, macrophage whole cell lysate) (UniProt P60335); assay: competition with a labelled probe; conditions: unlabelled mt CRE 10 uM vs 200 nM WT CRE probe (legend says five-fold excess); Macrophage lysate EMSA: 50 mM Tris-HCl pH 7.4, 150 mM NaCl, 100 U/ml RNasin, 4 ug lysate in 20 ul, on ice 30 min, 6% PAGE; protein in an extract; label: none (unlabelled competitor)
[2] = molecular target: PCBP1 (endogenous, macrophage whole cell lysate) (UniProt P60335); assay: EMSA supershift; conditions: anti-PCBP1, probe 200 nM, self-competed by excess unlabelled WT CRE; Macrophage lysate EMSA: 50 mM Tris-HCl pH 7.4, 150 mM NaCl, 100 U/ml RNasin, 4 ug lysate in 20 ul, on ice 30 min, 6% PAGE; protein in an extract

The chains behind the UniProt entries cited, without tags or fusion partners.
UniProt P60335, whole entry: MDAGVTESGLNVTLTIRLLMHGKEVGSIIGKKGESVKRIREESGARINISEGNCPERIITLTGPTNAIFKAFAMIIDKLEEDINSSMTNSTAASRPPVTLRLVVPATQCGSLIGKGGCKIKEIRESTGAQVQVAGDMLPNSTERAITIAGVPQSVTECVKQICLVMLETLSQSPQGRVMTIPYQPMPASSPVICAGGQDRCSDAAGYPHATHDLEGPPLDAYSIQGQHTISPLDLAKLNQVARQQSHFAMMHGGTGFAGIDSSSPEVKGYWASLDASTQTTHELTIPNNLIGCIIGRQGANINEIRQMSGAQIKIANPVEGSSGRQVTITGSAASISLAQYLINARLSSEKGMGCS

CAUGUGGAAAAUAAAAAGGCUGU [mt CRE]: no binding [1].

CAUGUGGCCCCUCCCCCGGCUGU [WT CRE]: binds [2].

Reference: paper PMC4879639
